In publication PMC11321591:
Results are given in words; binding and its absence hold for the method and conditions named. Binding seen in cells or lysates may run through a third protein. Some binding calls cover weakened binding; strength is not graded here.

Amino acid sequences for entries named in this document (tags omitted).
UniProt Q96SN8: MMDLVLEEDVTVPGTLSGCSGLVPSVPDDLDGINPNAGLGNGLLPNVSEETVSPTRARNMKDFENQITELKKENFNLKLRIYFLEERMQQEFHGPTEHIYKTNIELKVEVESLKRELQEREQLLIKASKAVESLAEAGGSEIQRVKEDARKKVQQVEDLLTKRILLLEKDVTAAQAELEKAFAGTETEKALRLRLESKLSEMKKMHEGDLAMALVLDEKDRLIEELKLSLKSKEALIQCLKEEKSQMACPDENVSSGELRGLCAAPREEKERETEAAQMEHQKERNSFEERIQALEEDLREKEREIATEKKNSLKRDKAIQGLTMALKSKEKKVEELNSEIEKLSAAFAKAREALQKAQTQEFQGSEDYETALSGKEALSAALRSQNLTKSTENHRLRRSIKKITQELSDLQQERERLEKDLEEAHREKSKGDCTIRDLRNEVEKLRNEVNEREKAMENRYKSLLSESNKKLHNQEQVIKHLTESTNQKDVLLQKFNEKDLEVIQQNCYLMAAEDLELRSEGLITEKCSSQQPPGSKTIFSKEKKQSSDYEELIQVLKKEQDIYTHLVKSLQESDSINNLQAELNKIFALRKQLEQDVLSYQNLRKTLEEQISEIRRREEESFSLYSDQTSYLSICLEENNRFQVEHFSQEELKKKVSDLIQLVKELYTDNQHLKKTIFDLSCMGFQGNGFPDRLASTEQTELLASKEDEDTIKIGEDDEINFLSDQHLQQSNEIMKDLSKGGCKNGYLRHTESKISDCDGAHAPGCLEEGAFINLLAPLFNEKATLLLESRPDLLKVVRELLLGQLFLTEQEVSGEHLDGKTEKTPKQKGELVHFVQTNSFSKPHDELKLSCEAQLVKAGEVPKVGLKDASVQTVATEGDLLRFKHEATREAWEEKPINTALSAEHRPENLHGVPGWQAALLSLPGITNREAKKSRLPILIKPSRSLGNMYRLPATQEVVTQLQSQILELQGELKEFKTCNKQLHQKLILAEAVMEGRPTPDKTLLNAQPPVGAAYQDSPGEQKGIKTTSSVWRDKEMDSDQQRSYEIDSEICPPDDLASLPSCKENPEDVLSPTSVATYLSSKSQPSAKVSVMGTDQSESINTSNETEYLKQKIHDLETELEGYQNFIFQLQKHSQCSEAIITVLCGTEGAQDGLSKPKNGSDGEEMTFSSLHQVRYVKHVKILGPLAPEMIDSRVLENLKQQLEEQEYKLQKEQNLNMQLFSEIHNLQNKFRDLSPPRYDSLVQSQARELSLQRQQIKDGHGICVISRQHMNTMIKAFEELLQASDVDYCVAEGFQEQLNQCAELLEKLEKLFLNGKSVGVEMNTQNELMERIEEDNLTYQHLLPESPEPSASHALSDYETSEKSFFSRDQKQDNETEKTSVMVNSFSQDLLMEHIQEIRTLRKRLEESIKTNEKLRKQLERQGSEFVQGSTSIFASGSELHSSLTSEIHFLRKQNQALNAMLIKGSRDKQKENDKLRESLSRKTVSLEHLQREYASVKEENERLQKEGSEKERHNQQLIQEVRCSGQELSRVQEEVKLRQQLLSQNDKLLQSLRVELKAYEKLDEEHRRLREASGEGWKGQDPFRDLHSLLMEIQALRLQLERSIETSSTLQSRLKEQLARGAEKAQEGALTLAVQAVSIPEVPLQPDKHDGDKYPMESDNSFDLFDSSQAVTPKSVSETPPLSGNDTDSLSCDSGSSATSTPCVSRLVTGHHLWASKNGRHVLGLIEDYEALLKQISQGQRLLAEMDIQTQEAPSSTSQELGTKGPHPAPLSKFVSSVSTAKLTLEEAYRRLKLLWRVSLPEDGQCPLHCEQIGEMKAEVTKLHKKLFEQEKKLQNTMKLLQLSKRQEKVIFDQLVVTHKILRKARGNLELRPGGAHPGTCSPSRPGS
UniProt P36404: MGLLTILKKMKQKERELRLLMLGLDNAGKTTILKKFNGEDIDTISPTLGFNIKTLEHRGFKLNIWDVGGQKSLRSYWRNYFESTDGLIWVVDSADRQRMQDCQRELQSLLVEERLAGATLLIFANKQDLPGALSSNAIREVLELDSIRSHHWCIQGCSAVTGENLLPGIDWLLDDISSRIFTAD

Key:
[1] = target: Myc-Cdk5rap2 (CDK5 Regulatory Subunit Associated Protein 2), in HEK293 (not stated (human or mouse cDNA cloned)) (UniProt Q96SN8); assay: co-IP; HA-Arl2 and Myc-Cdk5rap2 overexpressed in HEK293 cells; Pierce IP lysis buffer with protease inhibitors; lysate with HA or Myc antibody overnight at 4°C, protein A/G beads 3 h at 4°C, washed with PBS; western blot
[2] = target: HA-Arl2 (ADP ribosylation factor-like GTPase 2) (human) (UniProt P36404); assay: as above

Row | Substance | binding [1] | binding [2]
1 | HA-Arl2 (ADP ribosylation factor-like GTPase 2) (from UniProt P36404 1-184) | binds | 
2 | Myc-Cdk5rap2 (CDK5 Regulatory Subunit Associated Protein 2), in HEK293 (from UniProt Q96SN8 1-1893) |  | binds
